The results in this text go back to article PMC8769072, “Proteome‐scale mapping of binding sites in the unstructured regions of the human proteome” (Molecular Systems Biology, 2022).

The target in test [1] is importin subunit alpha‐3 (KPNA4) Arm domain, GST-tagged bait (human). The test can be described thus: proteomic peptide-phage display (ProP-PD); GST-tagged bait immobilised in MaxiSorp wells; results of several HD2 libraries combined, the library of the hit is not told; only the target purified.
Test [2] addresses Talin‐1 (TLN1) phosphotyrosine binding (PTB)‐like domain, GST-tagged bait (human). The test can be described thus: proteomic peptide-phage display (ProP-PD); GST-tagged bait immobilised in MaxiSorp wells; whole HD2 library on M13 major coat protein P8 (multivalent) in PBS; four rounds, triplicate selections, NGS of the enriched pools; medium/high confidence peptides; only the target purified.

The target of test [3] is TNKS Ank domain, GST-tagged bait (human). The test can be described thus: proteomic peptide-phage display (ProP-PD); GST-tagged bait immobilised in MaxiSorp wells; results of several HD2 libraries combined, the library of the hit is not told; only the target purified.

These are yes or no findings as the source states them, for the method shown. In cells and extracts the contact can be indirect. A yes stands for co-enrichment or nearness to the bait. Other partners may have been found.

For SLAPVKRTYEQMEFPL [ADNP 711-726 peptide from activity‐dependent neuroprotector homeobox protein, displayed on M13 phage], in test [1], the binding result was “binds”.

On to FPTDERSWVYSPLHYS, for which, in test [2], the binding result is on record as “binds”.

Consider PQLPHLQRSPPDGQSF [SH3‐binding protein 2 (SH3BP2) 408-423 peptide, displayed on M13 phage], for which, in test [3], the binding entry is on record as “binds”.

YEQMEFPLLKKRKLDD [ADNP 719-734 peptide from activity‐dependent neuroprotector homeobox protein, displayed on M13 phage]: the binding result in test [1] was “binds”.
